Source: paper doi:10.1101/2024.11.13.623519
Like-named read-outs stand apart in the source and are kept apart here. These are yes or no findings as the source states them, for the method shown.

Key:
[1] = target: human taurine transporter (TauT), full-length wild type (human) (UniProt P31641); assay: cryo-EM structure
[2] = target: human taurine transporter (TauT), full-length wild type (human) (UniProt P31641); assay: cryo-EM structure; remark: listed apart in the source

binding [1]: no binding (tested: 22.0 mg/mL) | binding [2]: no binding (tested: 1.2 mg/mL)
B1: human taurine transporter (TauT), full-length wild type (protein, UniProt P31641 1-620)
chain: MATKEKLQCLKDFHKDILKPSPGKSPGTRPEDEAEGKPPQREKWSSKIDFVLSVAGGFVGLGNVWRFPYLCYKNGGGAFLIPYFIFLFGSGLPVFFLEIIIGQYTSEGGITCWEKICPLFSGIGYASVVIVSLLNVYYIVILAWATYYLFQSFQKELPWAHCNHSWNTPHCMEDTMRKNKSVWITISSTNFTSPVIEFWERNVLSLSPGIDHPGSLKWDLALCLLLVWLVCFFCIWKGVRSTGKVVYFTATFPFAMLLVLLVRGLTLPGAGAGIKFYLYPDITRLEDPQVWIDAGTQIFFSYAICLGAMTSLGSYNKYKYNSYRDCMLLGCLNSGTSFVSGFAIFSILGFMAQEQGVDIADVAESGPGLAFIAYPKAVTMMPLPTFWSILFFIMLLLLGLDSQFVEVEGQITSLVDLYPSFLRKGYRREIFIAFVCSISYLLGLTMVTEGGMYVFQLFDYYAASGVCLLWVAFFECFVIAWIYGGDNLYDGIEDMIGYRPGPWMKYSWAVITPVLCVGCFIFSLVKYVPLTYNKTYVYPNWAIGLGWSLALSSMLCVPLVIVIRLCQTEGPFLVRVKYLLTPREPNRWAVEREGATPYNSRTVMNGALVKPTHIIVETMM
